Experimental data: article PMC11461026

Assays:
Assay in all cases: two-hybrid; AH109 yeast co-transformed with Gal4-DB effector baits (pDEST-DB) and Gal4-AD Arabidopsis preys (pDEST22); growth on -LWH against -LW plates, 30 C, three days; pairwise screen and dilution series
[1] = molecular target: Pseudomonas syringae pv. tomato DC3000 effector HopM1, Gal4BD-tagged (Pseudomonas syringae pv. tomato DC3000)
[2] = molecular target: Pseudomonas syringae pv. tomato DC3000 effector HopO1, Gal4BD-tagged (Pseudomonas syringae pv. tomato DC3000)
[3] = molecular target: Pseudomonas syringae pv. tomato DC3000 effector AvrPto, Gal4BD-tagged (Pseudomonas syringae pv. tomato DC3000)

| Binder | binding [1] | binding [2] | binding [3] |
| --- | --- | --- | --- |
| CONSTITUTIVE ACTIVE DEFENSE 1 (CAD1), Gal4AD-tagged (protein, UniProt Q9C7N2 1-561) MENRKGGNFSVPSSEALTTTLRNAIQALGRGFDVTSDVRLLYCKGAPGSRLVRIEEGQNRDLELSHGFLLPNVPADIDCSRGNSGTQRISVCSFHEMAEEFNVRSGVKGNIPLGCFNAMFNYTGSWQVDAASTKSLALVGYFIPLYDVKLAKLTLVLHNEIRRAVPSSWDPASLASFIENYGTHIVTSVTIGGRDVVYIRQHQSSPLPVSEIENYVNDMIKHRFHEAESQSITGPLKYKDKDITVIFRRRGGDDLEQSHARWAETVPAAPDIINMTFTPIVSLLEGVPGLRHLTRAIELYLEYKPPIEDLQYFLDYQIARAWAPEQSNLQRKEPVCSSLQFSLMGPKLFISADQVTVGRKPVTGLRLSLEGSKQNRLSIHLQHLVSLPKILQPHWDSHVPIGAPKWQGPEEQDSRWFEPIKWKNFSHVSTSPIEHTETHIGDLSGVHIVTGAQLGVWDFGSKNVLHLKLLFSKVPGCTIRRSVWDHTPVASSGRLEPGGPSTSSSTEEVSGQSGKLAKIVDSSEMLKGPQDLPGHWLVTGAKLGVEKGKIVLRVKYSLLNY | no binding | no binding | no binding |
| NECROTIC SPOTTED LESIONS 1 (NSL1), Gal4AD-tagged (protein, UniProt Q9SGN6 1-612) MAFNNFTRLDAHSAAEKAVSVIGLGYDLCSDVRFSACKTTPDGSRLVEIDPTRNRDLIFPGGIVVNNVSSSIKCDKGERTRLRSDILSFNQMSEKFNQDMCLSGKIPSGMFNNMFAFSKCWPKDASSVKTLAYDGWFISLYSVEIVRKQLTLRDEVKREVPSSWDSAALAGFIEKYGTHVVVGVTMGGKDVIHVKQMRKSNHEPEEIQKMLKHWGDERFCVDPVESKSPASVYSGKPKEENLLQWGLQPFGTSVSSAVVMHTKNEEIMRVCIRRGGVDLGQSHERWLSTVSQAPNVISMCFVPITSLLSGLPGTGFLSHAVNLYLRYKPPIEELHQFLEFQLPRQWAPVYGDLPLGLRRSKQSSPSLQFSLMGPKLYVNTSKVDSGERPVTGLRFFLEGKKGNHLAIHLQHLSACPPSLHLSHDDTYEPIEEPVEKGYYVPVKWGIFSHVCTYPVQYNGARSDDTASIVTKAWLEVKGMGMRKVLFLRLGFSLDASAVTRKSCWDNLSTNSRKSGVFSMISTRLSTGLSPNPATTKPQSKIDINSAVYPRGPSPPVKPKLLSLVDTKEVMRGPEEQPGYWVVTGAKLCVEAGKISIKAKYSLLTVISEDSLV | binds | no binding | no binding |

Results are given in words; binding and its absence hold for the method and conditions named. For part of these data: A result given as binding can be weak or reduced; the word gives no strength. Where a sequence is shown, tags or fusion partners need not be part of it.
